Data published in article PMC10185773, “Interactions of the protein tyrosine phosphatase PTPN3 with viral and cellular partners through its PDZ domain: insights into structural determinants and phosphatase activity” (Frontiers in Molecular Biosciences, 2023).
No constants are given. Whether binding was seen depends on the method and setting.

Sequences of proteins named here, by UniProt entry; tags and fusion partners are left off. A change or cut given only in a name is not applied to a line headed by its entry. Residues count along the entry.
UniProt P26045, residues 488-913: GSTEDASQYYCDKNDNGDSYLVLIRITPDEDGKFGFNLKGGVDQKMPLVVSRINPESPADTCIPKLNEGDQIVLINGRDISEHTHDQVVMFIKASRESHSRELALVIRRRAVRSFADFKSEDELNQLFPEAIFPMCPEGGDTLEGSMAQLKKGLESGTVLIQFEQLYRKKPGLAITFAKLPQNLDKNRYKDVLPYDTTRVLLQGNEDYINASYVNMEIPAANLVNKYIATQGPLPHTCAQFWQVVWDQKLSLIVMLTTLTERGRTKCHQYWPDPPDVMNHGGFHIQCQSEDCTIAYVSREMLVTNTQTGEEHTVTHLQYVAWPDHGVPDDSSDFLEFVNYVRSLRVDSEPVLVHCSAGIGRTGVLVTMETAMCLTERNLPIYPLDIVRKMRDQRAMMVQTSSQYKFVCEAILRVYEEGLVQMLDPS

Legend:
[1] = target: PTPN3-Bidomain (PDZ and PTP domains connected by the linker) (human) (UniProt P26045); experiment: SEC-SAXS; online HPLC (Superdex 75 increase 5 x 150) at 25°C into the SAXS cell, SWING beamline; free Bidomain; both purified
[2] = target: PTPN3-Bidomain (PDZ and PTP domains connected by the linker) (human) (UniProt P26045); experiment: AUC; sedimentation velocity, 20°C, 14 μM protein, 42,000 rpm, 17 h; continuous c(S) model; both purified

In the case of “PTPN3-Bidomain (PDZ and PTP domains connected by the linker) (from UniProt P26045-1 488-913) (domain or fragment)”, the binding [1] is reported as “no binding” and the binding [2] is reported as “no binding (tested: 14 μM)”.
